Laboratory results reported in PubChem BioAssay AID504467 (National Center for Advancing Translational Sciences (NCATS), 2011).
The whole screen tested about 330,000 compounds, of which about 7,700 (2.3%) were called active. This list was built around the results that the source calls inconclusive (neither active nor inactive); the mix of calls is not that of the screen. Calls come from the whole dose curve; as a rule, active = well fitted inhibition curve with a large enough effect; inconclusive = small, poorly fitted or top-dose-only effect, or effect the other way; inactive = flat fitted curve, though single readings scatter. Where the call is inconclusive, the potency comes from a doubtful curve fit.

experiment: qHTS screen for small molecules that inhibit ELG1-dependent DNA repair in human embryonic kidney (HEK293T) cells expressing luciferase-tagged ELG1; conditions: HEK293T ELG1-luciferase reporter, luminescence, 16 h, DNA damage induced by 5-fluorouridine; series mostly up to 46.1 µM; note: nearly all actives have a fitted effect of over 55% in size
Method in brief: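 Overnight (16 hr) co-exposure of 2,000 cells/well to 5-fluorouridine and compound at 37 °C preceded detection. Luciferase was quantified via ONE-Glo luminescence; loss of signal denotes inhibition.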
Potency is the fitted concentration of half-maximal effect.

Structure (SMILES) | Potency
CNC(=S)Nc1ccc(OCc2ccccc2)cc1 | inconclusive: 16.4 µM [activator, single point]
Cc1cc(C)c(C#N)c(SCC(=O)Nc2cc(C)on2)n1 | inconclusive: 9.2 µM [activator, partial curve]
Cc1cc(C(=O)NNc2ccc(Cl)cc2)no1 | inconclusive: 25.9 µM [activator, partial curve, poor fit]
O=C1C(=O)N(Cc2ccccc2)C(=O)N1CCOc1ccccc1 | inactive
COC(=O)c1c(-c2ccc(C)cc2)csc1NC(=O)C1CC=CCC1C(=O)O (stereo not given) | inconclusive: 14.6 µM [activator, partial curve]
COc1cc(/C=N/OCC(=O)Nc2ccc(OC(F)F)cc2)ccc1OCc1ccccc1 | inconclusive: 29.1 µM [inhibitor, single point]
Cc1ccc(C(=O)NNC(=O)c2ccc(S(=O)(=O)N3CCCCC3)cc2)cc1 | inactive
CNC(=O)COC(=O)c1[nH]c(C)c(C(C)=O)c1C | inconclusive: 0.259 µM [activator, full curve, poor fit]
Cc1ccc(S(=O)(=O)NC2c3cccc4cccc(c34)C2Sc2ncccn2)cc1 (stereo not given) | inconclusive: 18.4 µM [inhibitor, single point]
O=C(OCc1cc(=O)n2c(n1)sc1ccccc12)c1cccc(O)c1 | inconclusive: 23.1 µM [activator, partial curve]
COc1ccc(NC(=O)CN(C)C(=O)/C=C/c2cn(-c3ccccc3)nc2-c2cccs2)cc1 | inconclusive: 8.2 µM [inhibitor, single point]
COc1ccc(-c2nn(-c3ccccc3C)cc2CNCCc2cnc[nH]2)cc1F | inactive
Cc1ccc(-c2nnn(CC(=O)N(CCN3CCOCC3)C(C(=O)NC(C)(C)C)c3ccc(C)o3)n2)cc1 (stereo not given) | inactive
COCCN(C(=O)CSc1nc(N)cc(=O)[nH]1)c1c(N)n(Cc2ccccc2)c(=O)[nH]c1=O | inactive
O=C(NNC(=O)c1ccccc1F)c1ccc2nc[nH]c2c1 | inconclusive: 29.1 µM [activator, single point]
O=C(NCCC1=CCCCC1)c1cc2ccccc2oc1=O | inconclusive: 29.1 µM [activator, single point]
CC(C)N(C(=O)Cn1cc(SCC(=O)NCc2ccco2)c2ccccc21)C(C)C | inactive
NC1=C([N+](=O)[O-])C(c2ccc(F)cc2)C2=C(CCCC2=O)O1 (stereo not given) | inactive
CCN(CC)c1ccc(C=C(c2nnnn2-c2ccccc2)c2nnnn2-c2ccccc2)cc1 | inactive
Cc1ccc(C2=NC(C(F)(F)F)(C(F)(F)F)c3c(n(-c4ccc(F)cc4)c(=O)[nH]c3=O)N2)cc1 | inconclusive: 23.1 µM [inhibitor, single point]

Reprinted at random: 2 entries already listed, in no set order.
Structure (SMILES) | Potency
CNC(=O)COC(=O)c1[nH]c(C)c(C(C)=O)c1C | inconclusive: 0.259 µM [activator, full curve, poor fit]
CCN(CC)c1ccc(C=C(c2nnnn2-c2ccccc2)c2nnnn2-c2ccccc2)cc1 | inactive
